{"source": "paper PMC10101649", "target": "T1, CDPK16-nLUC (Arabidopsis) (UniProt Q7XJR9)", "T1 sequence": "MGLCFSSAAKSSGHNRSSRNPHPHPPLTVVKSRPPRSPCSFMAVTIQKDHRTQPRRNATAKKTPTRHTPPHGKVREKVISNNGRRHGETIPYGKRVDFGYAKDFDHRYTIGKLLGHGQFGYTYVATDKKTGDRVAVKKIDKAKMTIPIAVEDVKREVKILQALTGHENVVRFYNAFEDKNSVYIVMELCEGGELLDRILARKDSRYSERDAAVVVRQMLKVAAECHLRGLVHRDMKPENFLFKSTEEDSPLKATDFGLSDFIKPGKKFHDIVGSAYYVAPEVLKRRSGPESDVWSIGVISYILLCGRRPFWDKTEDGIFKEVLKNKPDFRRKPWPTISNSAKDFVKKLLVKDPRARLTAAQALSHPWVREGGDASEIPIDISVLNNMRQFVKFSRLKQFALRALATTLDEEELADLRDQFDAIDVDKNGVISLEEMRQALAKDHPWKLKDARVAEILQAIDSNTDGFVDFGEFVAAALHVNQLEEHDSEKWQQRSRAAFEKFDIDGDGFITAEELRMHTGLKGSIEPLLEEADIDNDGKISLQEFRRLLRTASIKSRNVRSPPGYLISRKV", "test": "split reporter; luciferase complementation imaging (LCI): CDPK16-nLUC and cLUC-ADF7 co-infiltrated into N. benthamiana leaves, 48 to 60 h at room temperature, LUC activity by cooled CCD; empty vector as control", "note": "Results are given in words; binding and its absence hold for the method and conditions named. In cells and extracts the contact can be indirect. Some results given as binding are weak or reduced against the parent protein; the word gives no strength. Tags and fused reporters may be left off the sequences shown."}
{"binder": "cLUC-ADF7 (protein, UniProt Q67ZM4 1-137) MANAASGMAVEDECKLKFLELKSKRNYRFIIFRIDGQQVVVEKLGNPDETYDDFTASLPANECRYAVFDFDFITDENCQKSKIFFIAWSPDSSRVRMKMVYASSKDRFKRELDGIQVELQATDPSEMSFDIIKSRAL", "values": [{"measurement": "binding", "result": "binds"}]}
